Experimental data: PubChem BioAssay AID602162 (NMMLSC, 2011)
The whole screen tested about 360,000 compounds, of which about 690 (0.19%) were called active. Inconclusive results, whose numbers are uncertain, are shown with a selection of clear calls.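 How the source made its calls: active means fluorescence ratio to DMSO below 75%, the collection mean minus 3 SD; inconclusive means too few cells collected in the well; inactive means the rest.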

Amino acid sequences for entries named in this document (tags omitted). A change or cut given only in a name is not applied to a line headed by its entry.
UniProt Q9NP58: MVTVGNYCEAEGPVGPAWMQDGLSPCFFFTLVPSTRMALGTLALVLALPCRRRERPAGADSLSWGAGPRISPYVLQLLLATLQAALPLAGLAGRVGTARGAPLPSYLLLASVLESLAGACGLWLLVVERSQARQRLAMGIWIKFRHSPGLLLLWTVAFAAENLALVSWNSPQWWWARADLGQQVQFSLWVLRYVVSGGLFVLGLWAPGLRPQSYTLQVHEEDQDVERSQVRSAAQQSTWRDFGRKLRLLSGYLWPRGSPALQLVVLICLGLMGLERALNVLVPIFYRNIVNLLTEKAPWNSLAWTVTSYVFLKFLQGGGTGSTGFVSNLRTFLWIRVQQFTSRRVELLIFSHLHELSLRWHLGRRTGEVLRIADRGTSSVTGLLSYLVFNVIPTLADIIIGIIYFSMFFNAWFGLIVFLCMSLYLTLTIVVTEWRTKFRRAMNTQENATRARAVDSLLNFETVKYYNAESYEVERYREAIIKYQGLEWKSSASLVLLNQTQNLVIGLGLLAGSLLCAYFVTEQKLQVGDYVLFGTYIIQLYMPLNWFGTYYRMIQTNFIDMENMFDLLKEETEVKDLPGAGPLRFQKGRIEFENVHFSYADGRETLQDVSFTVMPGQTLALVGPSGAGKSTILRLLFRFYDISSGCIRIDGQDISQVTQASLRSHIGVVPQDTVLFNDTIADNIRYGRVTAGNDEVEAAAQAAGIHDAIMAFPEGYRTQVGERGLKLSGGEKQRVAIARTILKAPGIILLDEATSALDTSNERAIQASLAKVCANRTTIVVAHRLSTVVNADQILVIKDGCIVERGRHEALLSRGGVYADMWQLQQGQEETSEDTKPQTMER

These compounds were tested against ATP-binding cassette sub-family B member 6 (Homo sapiens) (UniProt Q9NP58) (assay: blockers of ABCB6-driven porphyrin uptake – K562-ABCB6 cells, flow cytometry, MLPCN library, primary screen (AID 602162;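 on fluorescence ratio to DMSO: signal is porphyrin accumulated inside mitochondria; 100% equals median channel fluorescence of DMSO control wells; lower ratio means ABCB6 inhibition with less porphyrin fluorescence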)). Settings: K562-ABCB6 porphyrin accumulation, 1 h; at 10 µM, active compounds read low.
In the case of `O=C(COc1ccc2ccc(=O)oc2c1)N1CCC(C(=O)O)(c2ccccc2)CC1`, the fluorescence ratio to DMSO is reported as “inconclusive”. With `CN1C(=O)C(=Cc2ccc(Sc3ccccc3)o2)C(=O)N(C)C1=S` the fluorescence ratio to DMSO was active: 11%. For `CCCCn1c(O)c(C(C)=NC(C)c2ccccc2)c(=O)[nH]c1=O` (stereo unspecified), the fluorescence ratio to DMSO was active: 72%. `CN(C)C(=O)Oc1ccc2c(c1)O/C(=C\c1cccc([N+](=O)[O-])c1)C2=O` was tested, and the fluorescence ratio to DMSO was “inconclusive”. With `CC1(C)COC(Nc2cccc(Cl)c2)=N1` the fluorescence ratio to DMSO was “inconclusive”. For `OC(c1ccccc1)(c1ccccc1)C1CCNCC1`, the fluorescence ratio to DMSO was inactive: 105%.
